According to patent US20130266605A1, “PEPTIDE INHIBITORS OF CD40L SIGNALING AND USES THEREFOR” (PHYLOGICA LIMITED, priority 2010, published 2013):
No constants are given. Whether binding was seen depends on the method and setting. Some results given as binding are weak or reduced against the parent protein; the word gives no strength.

B1: M09_40L_0104_0770 (peptide)
peptide: ELHPVGETGPQLNATDHFHSTGHPVIRSFEPGEGWFWDYTTSELYESGPALAPPPNATDHFHSTGHPVIRSFEPGEGWFWDYTSN
B2: M08_40L_0104_0736 (peptide)
peptide: ELRHDGYTFSPHQAMPKDEFGEWPVPVFPNGDCYFFFHQDFSWGLLGDPWKCAITVFGESNSC
B3: M09_40L_0104_0767 (peptide)
peptide: ELLGEYEHAARYVSEVECNWKTFAGNYSECDHCHANHQDWITDIELAEPELEVNDYHWILHYTHDEDVEDEMRIHDEHEAKFYYFWPNFTGN
B4: M09_40L_0104_0776 (peptide)
peptide: ELLQTSAFEPDYVGERLDEWAWIVYPWNFIEDLEELLEGEDDPEHRQKEYIAWTKSSDWKCN
B5: M08_40L_0103_0720 (peptide)
peptide: ELRLPETRKAQAALATKYGIYGFCYYHYWFNGRRILESPVDAMLESGEPDFPFMLCWANENWTSNSC
B6: M08_40L_0104_0737 (peptide)
peptide: ELLPYEELDGVSIDLDGLTQLWNDGVSKEPFYEMDADLHLIDPNALIDWLGAWDQSDLTGNSC
B7: M09_40L_0103_0762 (peptide)
peptide: ELQRLAERYLSESYWGDVIEASDDVWELVACPVDGALDAALWDAWLESLEEGRYSN
B8: M08_40L_0104_0740 (peptide)
peptide: ELRVEWDYWYPVDYRFSGNDLITNHLTFYQFHHGELFDEPQWPRGIVIMGNSC
B9: M08_40L_0103_0722 (peptide)
peptide: ELHPEQKRLSTLSFYKEAQDEVTFYRDWDADSDSPDGELFGGSLANFEPTLETYDPDDAAPWAWNLPSDLFQEQFENWSEFHKILQNSNSC
B10: M09_40L_0103_0764 (peptide)
peptide: ELLWDDAIGCVRPRYPNGEWVENYSCTYDYPDRSGPWWDAVFYEGDSLQYSSFVPQDVAGLMANTGGPDGFVKWLDHLFDGHYSQSN
B11: M08_40L_0104_0749 (peptide)
peptide: ELLIDRWYWPNDVPSSLVPGYNATPNPDVGGPLFGDNEDLNQIVDEGWWIFYEESRNSC
B12: M09_40L_0103_0760 (peptide)
peptide: ELRWLVGTYSYQNDAYRQLFEPDDESALLQELSEYLDDHGSEPIIYYGGNYFDEQCLSRRFDEHGN
B13: M09_40L_0103_0752 (peptide)
peptide: ELLCRVSAAEPPAGGRAAVRLLQGYLWYPEGADVDLESFLPRELDLSQAPSLSEEDAHVLWDQVQPPFAFFENGN
B14: M08_40L_0103_0719 (peptide)
peptide: ELRDGNFDDTDRVGTVHDMRFVFLDNDTKLLFCTAYDDEWDPYIDDFATKIPDELDLFKCNSC
B15: M09_40L_0104_0772 (peptide)
peptide: ELPLAAGTSWWEKELFMGAPDWSQFEKYPYPSLSPEEQSFIDNEVEVLCSN
B16: M09_40L_0104_0769 (peptide)
peptide: ELLFHGHDQFSQVEGVCAEVFNERGFGLDFLGGHAELVHDDLLDFFFNGHGSLQCN
B17: M08_40L_0103_0725 (peptide)
peptide: ELLWNDGVSKEPFYEMDADLHLIDPNALIDWLGAWDQSDLTEIRENVAPFLGNLIFRQTDDWHDYRYYSNSC
B18: M08_40L_0104_0735 (peptide)
peptide: ELLMNEESTEFIARGHLTDDWDKVFFDSLNGGMEYGPGSFLGMGSPFNLMDHFSVHRYYQAGGDTDFTDEQYYKIFARNSC
B19: M08_40L_0104_0727 (peptide)
peptide: ELLSWVTDNCDFTGSITERPYNGPWMQFDRDIDPSVLDPQADSDVSLDEVVEYDCRIDETDLEEWISDHEEFPDLVSLLDISVDGERWIPLHGIYKWRADEGNSC
B20: M08_40L_0104_0733 (peptide)
peptide: ELPLDEVNYSYPVVAIKEIHVWKSQDYDSGYPYPTPAPYYYYDPYWYGVWPGPYWHRPLGPVRRNSC
B21: M09_40L-0103_0754 (peptide)
peptide: ELRMISYCMASDPFGHAVRDYYLGELEEPLIDRDGDETREHSIEEWYFGEYQRDEWFESWLEGPLLDMGN
B22: M08_40L_0104_0746 (peptide)
peptide: ELLCQPLALSGIDNPFEWIDIAKGAPHVSISLGEGVDIYSPDDEPASNGPLPDDVLDLFWCFGNSC
B23: M08_40L_0104_0739 (peptide)
peptide: ELLLQGEDMIEQLGRAHMSWGLGSADRWDLDQTTGIITWTFPDKTAAAPAQILGSFSPGSGSWLWAWANKSNSC
B24: M08_40L_0104_0741 (peptide)
peptide: LELLFGGSLVNLEPTLETYDPDDAAPWAWNLPSDLFQEQFENWSEFHKILQNSNSC
B25: M09_40L_0103_0753 (peptide)
peptide: ELLRDGNFDDTDRVGTVHDMRFVFLDNDTKLLFCTAYDDEWDPYIDDFATKIPDELDLFISN
B26: M08_40L_0104_0745 (peptide)
peptide: ELPTYAFERERFWLDVEEGSAGGSGVSGMWGGPLWEAVECGDAGACELWNWSLDVLLSNSC
B27: M08_40L_0104_0743 (peptide)
peptide: ELLARSGNWKNLWDDAIGCVRPRYPNGEWVENYSCTYDYPDRSGPWWDAVFYEGNSLQYSSFVPQDVAGLMANTGGPDGFVKWLDHLFDGHYSQSNSC
B28: M08_40L_0104_0738 (peptide)
peptide: ELHFKPKQLLGLTATPEWMDGLNVQDKFFEGRIAAELRLWEALENDLLCPFHYFGIPDGTDLTSNSC
B29: M09_40L_0103_0759 (peptide)
peptide: ELLFDHFRFCLTEFDRFDFSDHHGYLERNDWTIHDFAGNGATGQFAVELTPDIIEETYRKAQDSANAVGDTPASREFEFKRYYYSRN
B30: M09_40L_0104_0774 (peptide)
peptide: ELPLGEYEHAARYVSEVECNWKTFAGNYSECDHCHANHQDWITDIELAESELEVNDYHWILHYTHDEDVEDEMRIHDEHEAKFYYFWPNFTSN
B31: M09_40L_0104_0771 (peptide)
peptide: ELLQNYALIHDQDFGGWQQWWDLHNVEGEPSTGLLVEDGNLALQAALDGLGIALLRPSLVDVFVDEGGLSRLFDHQLEDGRDYYLCHLVEQPLSEAEERN
B32: M08_40L_0104_0742 (peptide)
peptide: ELPCYDMHGLPIETKVEEQLGFESKKDIQEFGEEAFIEECKRFADDNLDGLQSDFQSFGVWMDWDNPYKTVDPSYMEAAWWAFSEVQSATALAGDGSSNSC
B33: M09_40L_0103_0761 (peptide)
peptide: ELLFGGSLVNLEPTLETYDPDDAAPWAWNLPSDLFQEQFENWSEFHKILQNSN
B34: M08_40L_0104_0730 (peptide)
peptide: ELLRPHDPEKAKALLAEAGVSDVSLDYVVNAGNEVDEQIAVLLQQQLGQAGITVNLQKMDPSMTWDMLVNGEYDLSVMYWTNDILDPDQKTTFVLGHDVNMNYRRNSC

target: T1, CD40 ligand (UniProt P29965 108-261, limits assumed); assay: phage display screen on CD40L
T1 sequence (looked up): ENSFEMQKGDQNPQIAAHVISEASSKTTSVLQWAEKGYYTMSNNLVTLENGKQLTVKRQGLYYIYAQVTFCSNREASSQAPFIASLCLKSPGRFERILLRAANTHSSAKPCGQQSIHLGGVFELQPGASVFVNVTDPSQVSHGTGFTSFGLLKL

binding, binds:
B1, B2, B3, B4, ELLHLPRPGFCDARSHGDSNFEDLFYFILCGTHFNSC [M08_40L_0103_0717], ELPHLPRPGFCDARSHGDSNFEDLFYFILCGTHFNSC [M08_40L_0103_0723], B5, B6, B7, B8, B9, B10, B11, B12, ELLMRDWNYPGWVMSDWACENDFLLNKVLKRDWNYPGWVMSDCGNSC [M08_40L_0103_0724], B13, B14, ELRGCHSNTHQYAFSPGSPFFPFAISLPWRHDSDVEAAPCN [M09_40L_0104_0778], B15, B16, B17, B18, B19, ELLWCQHGGFKYGTSLTDMFDQFKSEYCDGCN [M09_40L_0104_0777], ELPKFDEYLSDDNNPDEPGWFMQWLQQTCDLFAYTFDEAWFDIGTPQSN [M09_40L_0104_0773], B20, B21, B22, B23, B24, B25, B26, B27, B28, B29, B30, ELGVWMDGWVCGWLGLDEWIGTRVEGGQRDVDGCNSC [M08_40L_0104_0729], ELLWRLNEWNYSDAELLSLIEWCIDHGNSC [M08_40L_0103_0721], B31, B32, B33, B34
